Experimental data: PubChem BioAssay AID662 (National Center for Advancing Translational Sciences (NCATS), 2007)
Some of the results follow. Further columns of the screen follow, without active or inactive calls. The list favours compounds with an active or inconclusive main result. Potencies come from curve fits of mixed quality, noted in brackets.

Test: Cell signaling CRE-BLA (Fsk stim)
Conditions: CHO CRE-bla reporter (cAMP response element driving beta-lactamase), forskolin EC10, beta-lactamase ratio; measured here: 460 nm blue channel
In short: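 CHO CRE-bla cells, overnight plating in Opti-MEM with 0.5% dialyzed FBS; cpd titration + EC10 NKH 477, 3 h 37 °C; CCF4 2 h RT; ex 405/em 460 vs 530 ratio → %Activity, AC50.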

Row | SMILES | AC50
1 | COc1cccc2c(=O)c(C(=O)NCc3cccs3)c[nH]c12 | 12.6 µM [rising, partial curve]
2 | CC(C)NC(=O)COC(=O)c1ccc(O)cc1 | 0.1 µM [falling, single point]
3 | COc1ccc(-c2noc(COc3ccc4c(c3)OCO4)n2)cc1OC | 6.31 µM [rising, partial curve, poor fit]
4 | CN1CCN(c2ncc3nc(-c4cccc(C#N)c4)c(=O)n(Cc4ccc(F)cc4)c3n2)CC1 | 5.01 µM [rising, partial curve]
5 | COc1ccc2[nH]cc(CCNc3cc(-c4cccnc4)ncn3)c2c1 | 12.6 µM [rising, partial curve, poor fit]
6 | Cc1c(C)c2ccc(OCc3ccc(C(=O)O)o3)c(C)c2oc1=O | 25.1 µM [rising, single point]
7 | CCOC(=O)C1CCN(c2ncnc3c2oc2ccccc23)CC1 | 5.01 µM [rising, partial curve]
8 | COc1ccc(-c2noc(-c3cc(Cl)ccc3Cl)n2)cc1OC | 0.631 µM [rising, full curve, poor fit]
9 | CCCSc1nnc(N2C(=O)CC(c3ccsc3)C3=C2CCCC3=O)s1 (configuration not stated) | 12.6 µM [rising, single point]
10 | Cc1nc2c(C(=O)NCCC3=CCCCC3)c[nH]n2c(=O)c1Cl | 7.94 µM [rising, partial curve]
11 | Oc1ccc2c(c1)oc1cc(O)ccc12 | 10 µM [falling, partial curve]
12 | CCOc1ccccc1N(CC(=O)NC1CCCCC1)S(C)(=O)=O | 1 µM [rising, single point]
13 | CCn1c(=O)cc(OCC(=O)N(C)C2CCCCC2)c2ccccc21 | 7.94 µM [rising, partial curve]
14 | COc1cc2c(cc1NC(=O)CN1CCN(S(=O)(=O)c3ccc(F)cc3)CC1)oc1ccccc12 | 15.8 µM [falling, partial curve, poor fit]
15 | c1ccc2c(c1)CCN(c1nc3ccccc3n3cnnc13)C2 | 0.398 µM [rising, full curve]
16 | COC(=O)CSc1nnc(CNC(=O)Cc2ccccc2)n1C | 25.1 µM [rising, single point]
17 | Cc1cnc(CNc2nc(-c3ccccc3C)nc3ccccc23)cn1 | 25.1 µM [rising, single point]
18 | COc1cc2cc3c4c(cc(OC)c(OC)c4c2cc1OC)CCN3C | 3.16 µM [rising, partial curve]
19 | O=C(Nc1c(F)cc(F)cc1Br)c1ccco1 | 12.6 µM [rising, single point]
20 | COC(=O)C1=[N+]([O-])OC(C(=O)OC)C1c1c[nH]c2ccccc12 (configuration not stated) | 0.158 µM [falling, partial curve]
21 | COC(=O)c1cc(NC(=O)c2ccoc2C)cc(C(=O)OC)c1 | 12.6 µM [rising, single point]
22 | COc1cccc2cc(-c3csc(CCn4nc(C)cc4C)n3)c(=O)oc12 | 2 µM [falling, partial curve]
23 | C=CS(=O)(=O)c1ccc(Oc2ccc(S(=O)(=O)C=C)cc2)cc1 | 1.26 µM [falling, full curve]

Row | SMILES | AC50
24 | COC(=O)[C@@]1(Cc2ccc(OC)cc2)[C@H]2c3cc(C(=O)N4CCCC4)n(Cc4ccc(OC)c(OC)c4)c3C[C@H]2CN1C(=O)c1ccccc1 | 0.158 µM [rising, full curve]
25 | CC(=O)NCCNc1nc(-c2ccccc2C(F)(F)F)nc2ccccc12 | 12.6 µM [rising, partial curve]
26 | CCn1cc(C(=O)NCc2ccccc2OC)c(=O)c2cc(S(=O)(=O)N(C)C)ccc21 | 2 µM [rising, full curve]
27 | CC(=O)Oc1ccc2cc(-c3nc4ccccc4n3C)c(=O)oc2c1 | 2.51 µM [rising, full curve]
28 | CS(=O)(=O)Nc1cccc(-c2ccc3ncnc(NCc4cccnc4)c3c2)c1 | 12.6 µM [rising, single point]
29 | CCCn1c(-c2ccc(F)cc2)nc2c(N3CCN(CCn4ccnc4)CC3)nc(C)nc21 | 10 µM [rising, single point]
30 | CCn1c(SCC(=O)Nc2cc(C)on2)nc2sc3c(c2c1=O)CCCC3 | 1 µM [rising, full curve]
31 | CC(=O)Nc1nc2n(n1)C(c1ccc(F)cc1)C=C(c1ccccc1)N2 (configuration not stated) | 12.6 µM [rising, single point]
32 | O=C(Nc1ccc(C(F)(F)F)cc1Cl)c1ccc(Cn2cc(Br)cn2)o1 | 25.1 µM [rising, single point]
33 | CCS(=O)(=O)N1CCN(c2cccc(C)c2C)CC1 | 0.398 µM [rising, partial curve, poor fit]
34 | CCC(=O)N1CCN(c2ccc(NC(=O)c3cc4ccccc4o3)cc2Cl)CC1 | 12.6 µM [falling, partial curve]
35 | Cc1ccc(C(=O)Nc2ccccc2C(=O)NC(CC(=O)O)C(=O)O)cc1 (configuration not stated) | 3.98 µM [falling, partial curve]
36 | COCCCNC(=O)c1cc2c(-c3ccc(Cl)cc3)nn(C)c2s1 | 2.51 µM [rising, full curve]
37 | O=C(Nc1cc(C(F)(F)F)ccc1N1CCOCC1)c1n[nH]c(=O)c2ccccc12 | 1.26 µM [rising, full curve]
38 | COc1cc(-c2nnc3sc(Cc4ccccc4)nn23)cc(OC)c1OC | 2.51 µM [rising, partial curve, poor fit]
39 | CCn1c(SCC(=O)C(C)(C)C)nnc1-c1cccnc1 | 0.0501 µM [falling, full curve, poor fit]
40 | Cc1nc(-n2nnc3ccccc32)c2c3c(sc2n1)CCCC3 | 3.98 µM [falling, single point]
41 | CCNc1ncc2nc(-c3cccc(C#N)c3)c(=O)n(CCC#N)c2n1 | 3.16 µM [rising, full curve]
42 | COC(=O)C1CCN(C(=O)c2sc3nc(-c4ccccc4)cn3c2C)CC1 | 10 µM [rising, single point]
43 | c1ccc(-c2oc3ncnc(NCCCN4CCOCC4)c3c2-c2ccccc2)cc1 | 2.51 µM [rising, partial curve]
44 | COC(=O)C1=C(C)N(c2cccc3ccccc23)C(=O)C1 | 12.6 µM [falling, partial curve, poor fit]
45 | COc1ccc(-c2nc3cnc(Oc4cccc(Cl)c4)nc3n(CCC#N)c2=O)cc1 | 7.94 µM [rising, partial curve]
46 | Cc1ccc2cc(CN(Cc3cccs3)C(=O)c3ccco3)c3nnnn3c2c1C | 3.16 µM [rising, partial curve]

Row | SMILES | AC50
47 | C=C(C)Cn1c(CCNC(=O)CCC)nc2ccccc21 | 0.00794 µM [falling, full curve, poor fit]
48 | Cn1cnc2c(sc3nc(N4CCOCC4)c4c(c32)CC(C)(C)OC4)c1=O | 12.6 µM [rising, partial curve]
49 | Cc1noc(C)c1C(=O)Nc1nnc(-c2ccccc2)s1 | 25.1 µM [rising, single point]
50 | O=S(=O)(c1ccc2nc(-c3ccco3)c(-c3ccco3)nc2c1)N1CCOCC1 | 12.6 µM [rising, single point]
51 | CCOc1cccc2cc(-c3cn4cc(C)ccc4n3)c(=O)oc12 | 0.2 µM [rising, full curve]
52 | Cc1noc(C)c1S(=O)(=O)N1CCC2(CC1)OCCO2 | 3.98 µM [rising, single point]
53 | COC(=O)c1ccc(C(NC(=O)OCc2ccccc2)/C(C)=C/[C@@H](C)C(=O)NCCc2c[nH]c3ccc(OC)cc23)cc1 (some centres not stated) | 20 µM [falling, single point]
54 | Cc1ccccc1CN1CCNC1=O | 2.51 µM [rising, partial curve]
55 | COc1ccc2c(c1OC)C(=O)N(c1nccs1)C2 | 20 µM [rising, partial curve]
56 | Cc1ccc(CNC(=O)CCS(=O)(=O)c2ccc(Br)s2)o1 | 0.158 µM [falling, full curve]
57 | FC(F)(F)c1ccccc1-c1nc(Nc2ccncc2)c2ccccc2n1 | 0.794 µM [rising, partial curve]
58 | CCOC(=O)CSc1nc2ccc(NC(C)=O)cc2s1 | 1.58 µM [rising, partial curve]
59 | O=C(Nc1ccc(Cl)cc1C(=O)NCc1cccnc1)c1ccco1 | 20 µM [rising, partial curve, poor fit]
60 | O=c1c(-c2ccc(F)cc2)nc2cnc(N3CCOCC3)nc2n1Cc1cccs1 | 3.16 µM [rising, partial curve]
61 | Cc1c(C)c2ccc(OCC(=O)N(C)C)c(C)c2oc1=O | 12.6 µM [rising, single point]
62 | COc1ccc(OCC(O)COc2ccc(OC)cc2)cc1 | 0.00398 µM [falling, partial curve, poor fit]
63 | CC1CCCc2sc3nc(NCc4ccco4)n4ncnc4c3c21 (configuration not stated) | 2 µM [rising, full curve]
64 | Nc1cc(=O)[nH]c(SCC(=O)Nc2ccc(Br)cc2)n1 | 2.51 µM [falling, partial curve]
65 | O=C(Nc1ccc(Cl)c(C(F)(F)F)c1)C1CCCN(S(=O)(=O)c2cnc[nH]2)C1 (configuration not stated) | 0.0794 µM [falling, full curve, poor fit]
66 | Cc1ccc(NCc2nnc(SCC(=O)N(Cc3ccccc3)C(C)(C)C)o2)c(C)c1 | 15.8 µM [falling, partial curve]
67 | Cc1ccc(C)c(Cn2c(=O)n(CCC(=O)NCc3ccco3)c(=O)c3ccccc32)c1 | 12.6 µM [rising, single point]

3 structures from above, ordered by heavy-atom count, smallest number first:
Row | SMILES | AC50
55 | COc1ccc2c(c1OC)C(=O)N(c1nccs1)C2 | 20 µM [rising, partial curve]
56 | Cc1ccc(CNC(=O)CCS(=O)(=O)c2ccc(Br)s2)o1 | 0.158 µM [falling, full curve]
60 | O=c1c(-c2ccc(F)cc2)nc2cnc(N3CCOCC3)nc2n1Cc1cccs1 | 3.16 µM [rising, partial curve]
